Results as given in PMC9986458.

What was measured:
[1] = test system: TcbZIP60 (Tanacetum cinerariifolium); assay: EMSA; details: 10 uM FAM probe, band decreased by 50x unlabeled probe; EMSA with 10 uM FAM-labeled probe and 50-fold excess unlabeled competitor; pH and temperature not given; recombinant protein
[2] = test system: TcbZIP60 (Tanacetum cinerariifolium); assay: competition with a labelled probe; details: shifted band recovered, EMSA with 10 uM FAM-labeled probe and 50-fold excess unlabeled competitor, pH and temperature not given, recombinant protein, label: none (unlabeled competitor)

## TTTGAAGGCAAGTGATGTAAAGTGCTAAGTGTTAAGTCAATGATTATAT (double strand) [Probe_proCHS]
[1]
  binding result: binds

## CAACTAATCACACACCGCTCTTCTTCCACCGTCCACCTACT (double strand) [mProbe_proAOC]
[2]; 50x unlabeled mutant vs FAM-proAOC
  binding result: no binding

## CAACTAATCACACACCGCCACGTGTCCACCGTCCACCTACT (double strand) [Probe_proAOC]
[1]
  binding result: binds

## TTAAAAAGCAAAAAATGTAAAGTGCTAAGTGTTAAAAAAAAAATTATAT (double strand) [mProbe_proCHS]
[2]; 50x unlabeled mutant vs FAM-proCHS
  binding result: no binding

Construct, isoform or probe ends are uncertain for at least one entry. For some of these results: A negative result means that nothing was seen under these conditions.
